Legend:
[1] = general procedure: Fmoc solid-phase peptide synthesis; Rink Amide MBHA resin; NovaSyn TGR Resin; HBTU/DIEA (printed for lauric acid coupling); details: whole synthesis
[2] = general procedure: Fmoc solid-phase peptide synthesis; Rink Amide MBHA resin; HBTU/DIEA (printed for lauric acid coupling); details: whole synthesis, scale 14.1 μmol

Ac-IRRRVYDALNVLMAM-NH2 gave a crude mass ([1]; scale 14.7 μmol) of 29.0 mg and an isolated mass ([1]; scale 14.7 μmol) of 5.9 mg.

“La-Asn-Glu-Ser-Ala-Tyr-Asp-Gln-Lys-Asn-Ile-Arg-Arg-Arg-Val-Tyr-Asp-Ala-Leu-Asn-Val-Leu-Met-Ala-Met-Asn-Ile-Ile-Ser-NH2” gave a crude mass ([1]; scale 20 μmol) of 47.9 mg and an isolated mass ([1]; scale 20 μmol) of 2.2 mg.

“Ac-Leu-Asn-Trp-Ala-Ala-Glu-Val-Leu-Lys-Val-Gin-Lys-Arg-Arg-Ile-Tyr-Asp-Ile-Thr-Asn-Val-Leu- Glu-Gly-Ile-Gin-Leu-Ile-Ala-NH2” showed a crude mass [2] of 39.1 mg and an isolated mass [2] of 7.5 mg.

In the case of Ac-VLKVQKRRIYDITNV-NH2, the crude mass ([1]; scale 14.7 μmol) was 40.7 mg and the isolated mass ([1]; scale 14.7 μmol) was 20.1 mg.

Substance Ac-NESAYDQKNIRRRVYDALNVLMAMNIIS-NH2 has a crude mass ([1]; scale 14.1 μmol) of 34.7 mg and an isolated mass ([1]; scale 14.1 μmol) of 6.3 mg.

With “Ac-ARGRGRHPGKGVKSPGERSRYETSLNLTTKRFLEL-NH2” the crude mass ([1]; scale 9.8 pnol) was 38.7 mg and the isolated mass ([1]; scale 9.8 pnol) was 5.6 mg.
